Measured values from paper doi:10.1101/2019.12.19.883264.
Positions count from the first letter of the chain named. These are yes or no findings as the source states them, for the method shown. Binding seen in cells or lysates may run through a third protein. Some entries that bind do so weakly or less than the wild type. Tags and fused reporters may be left off the sequences shown.

Sequences of proteins named here, by UniProt entry; tags and fusion partners are left off. A change or cut given only in a name is not applied to a line headed by its entry.
UniProt P06748, whole entry: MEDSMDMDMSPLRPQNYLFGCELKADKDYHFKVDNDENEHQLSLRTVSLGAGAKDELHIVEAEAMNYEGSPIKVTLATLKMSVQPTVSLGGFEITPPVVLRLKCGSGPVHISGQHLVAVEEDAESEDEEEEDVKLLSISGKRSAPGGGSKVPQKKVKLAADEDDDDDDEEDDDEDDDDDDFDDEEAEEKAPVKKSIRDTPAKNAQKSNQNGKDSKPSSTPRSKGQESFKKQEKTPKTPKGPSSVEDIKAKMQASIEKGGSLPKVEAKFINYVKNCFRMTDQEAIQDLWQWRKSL

Experiments:
GST tagged 14-3-3γ = target: T1, GST tagged 14-3-3γ (UniProt P61981); assay: pull-down
T1 sequence: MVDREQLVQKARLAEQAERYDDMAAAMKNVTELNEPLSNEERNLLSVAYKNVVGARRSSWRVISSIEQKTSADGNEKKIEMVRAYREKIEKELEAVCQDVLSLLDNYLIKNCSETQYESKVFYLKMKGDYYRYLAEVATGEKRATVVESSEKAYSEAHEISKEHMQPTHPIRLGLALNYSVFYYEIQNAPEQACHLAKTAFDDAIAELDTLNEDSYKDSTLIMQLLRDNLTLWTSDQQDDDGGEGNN

[1] = target: T2, HA-epitope tagged 14-3-3γ D129A (UniProt P61981); assay: co-IP
T2 sequence: T1 sequence with D129A

[2] = target: T3, HA-epitope tagged 14-3-3γ E136A (UniProt P61981); assay: co-IP
T3 sequence: T1 sequence with E136A

## CFP tagged NPM1 S48A (from UniProt P06748 1-294)
GST tagged 14-3-3γ
  binding: no binding

## CFP tagged NPM1 S48E (from UniProt P06748 1-294)
GST tagged 14-3-3γ
  binding: binds

## CFP tagged NPM1 S218A (from UniProt P06748 1-294)
GST tagged 14-3-3γ
  binding: binds

## CFP tagged NPM1 S293A (from UniProt P06748 1-294)
GST tagged 14-3-3γ
  binding: binds

## Nucleophosmin (NPM1), endogenous (from UniProt P06748 1-294)
[1]
  binding: binds
[2]
  binding: no binding
